Experimental data as given in patent US9682125B2, “Compositions and methods for treating cognitive deficits” (Case Western Reserve University, priority 2011, dated 2017).

Test system: SAMP8 mice
Test: Object recognition task
Assay type: in vivo
Details: vs saline-treated group
Procedure: All SAMP8 mice were treated with either saline or pramlintide beginning at 6 months of age. A subcutaneous ALZET® osmotic minipump (Model 2002, Durect Corp., Cupertino, Calif., USA) was surgically implanted into all mice as described previously^26. The osmotic mini-pump infused 0.24 mg/kg/day pramlintide acetate (0.6 mg/mL pramlintide, Amylin Pharmaceuticals, Inc., San Diego, Calif.) or saline at a rate of 0.5 μL/hr. Pumps were replaced with new refilled pumps every two weeks throughout the study duration. All animals were weighed weekly throughout the course of the experiment.
A total of 20 SAMP8 mice were used in the object recognition task. […] The mice were allowed to explore the environment for 10 minutes, during which their movements were recorded with a tracking system. […]
Videos recordings of the retention session were scored by an investigator blinded to the treatment groups. Object exploration, defined as the duration of time in which the head of the mouse faced less than ½ cm from the object, was measured during the training and retention sessions. The frequency of object exploration was also recorded, as well as the frequency and time spent rearing and grooming to determine general exploratory behavior. […] The recognition index was calculated as the percent of time spent exploring the novel object versus the total time spent exploring the objects.

CC[C@H](C)[C@H](NC(=O)[C@@H]1CCCN1C(=O)CNC(=O)[C@H](Cc1ccccc1)NC(=O)[C@H](CC(N)=O)NC(=O)[C@H](CC(N)=O)NC(=O)[C@H](CO)NC(=O)[C@H](CO)NC(=O)[C@H](Cc1c[nH]cn1)NC(=O)[C@@H](NC(=O)[C@H](CC(C)C)NC(=O)[C@H](Cc1ccccc1)NC(=O)[C@H](CC(N)=O)NC(=O)[C@H](C)NC(=O)[C@H](CC(C)C)NC(=O)[C@H](CCCNC(=N)N)NC(=O)[C@H](CCC(N)=O)NC(=O)[C@@H](NC(=O)[C@H](C)NC(=O)[C@@H]1CSSC[C@H](NC(=O)[C@@H](N)CCCCN)C(=O)N[C@@H](CC(N)=O)C(=O)N[C@@H]([C@@H](C)O)C(=O)N[C@@H](C)C(=O)N[C@@H]([C@@H](C)O)C(=O)N1)[C@@H](C)O)C(C)C)C(=O)N[C@@H](CC(C)C)C(=O)N1CCC[C@H]1C(=O)N1CCC[C@H]1C(=O)N[C@H](C(=O)N[C@@H](CC(N)=O)C(=O)N[C@H](C(=O)NCC(=O)N[C@@H](CO)C(=O)N[C@@H](CC(N)=O)C(=O)N[C@H](C(=O)N[C@@H](Cc1ccc(O)cc1)C(N)=O)[C@@H](C)O)C(C)C)[C@@H](C)O [pramlintide]
exploratory behavior, time spent grooming: no difference | exploratory behavior, time spent rearing: no difference
